# In publication PMC12126226:
# Chains of the proteins cited; added tags and fusions are not shown. Residues count along the entry.
# UniProt P49773: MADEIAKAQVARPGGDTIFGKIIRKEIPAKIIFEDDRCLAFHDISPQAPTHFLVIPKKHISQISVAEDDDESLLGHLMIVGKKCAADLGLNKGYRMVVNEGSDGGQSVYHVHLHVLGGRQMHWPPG
# UniProt P52948, residues 1-880: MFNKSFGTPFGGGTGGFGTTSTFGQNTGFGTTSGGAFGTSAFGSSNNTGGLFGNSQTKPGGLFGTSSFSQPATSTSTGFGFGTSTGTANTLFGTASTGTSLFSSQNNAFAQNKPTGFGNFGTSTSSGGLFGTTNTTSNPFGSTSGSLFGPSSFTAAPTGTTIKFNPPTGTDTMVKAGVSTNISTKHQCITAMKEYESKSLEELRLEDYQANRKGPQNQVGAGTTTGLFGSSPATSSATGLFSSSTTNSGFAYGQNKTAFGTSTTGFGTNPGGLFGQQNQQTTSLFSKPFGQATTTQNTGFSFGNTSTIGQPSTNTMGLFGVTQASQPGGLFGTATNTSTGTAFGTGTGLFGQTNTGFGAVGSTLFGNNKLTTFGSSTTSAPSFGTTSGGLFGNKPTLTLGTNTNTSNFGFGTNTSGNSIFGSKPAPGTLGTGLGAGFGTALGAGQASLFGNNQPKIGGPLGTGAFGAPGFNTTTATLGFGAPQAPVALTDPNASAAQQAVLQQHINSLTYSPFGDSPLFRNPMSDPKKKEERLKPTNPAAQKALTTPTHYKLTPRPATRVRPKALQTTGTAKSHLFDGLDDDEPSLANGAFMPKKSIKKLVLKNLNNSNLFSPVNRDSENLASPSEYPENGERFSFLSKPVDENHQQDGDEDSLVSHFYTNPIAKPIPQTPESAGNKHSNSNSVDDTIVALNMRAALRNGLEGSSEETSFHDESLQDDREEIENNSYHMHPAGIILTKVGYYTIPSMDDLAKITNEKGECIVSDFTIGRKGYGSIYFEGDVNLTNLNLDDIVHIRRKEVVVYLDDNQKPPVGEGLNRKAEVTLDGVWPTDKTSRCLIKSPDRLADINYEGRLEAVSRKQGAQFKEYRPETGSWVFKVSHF
# Target: HINT1 immunoprecipitated for mass spectrometry (cells not stated) (UniProt P49773)
# Experiment: affinity purification with mass spectrometry; interacting proteins of HINT1 pulled down by Co-IP using the antibody of HINT1 and identified by MS; cells not given
substance,measurement,value
NUP98 identified by mass spectrometry in the HINT1 immunoprecipitate (cells not stated) (from UniProt P52948 1-880),binding,binds

# These are yes or no findings as the source states them, for the method shown. In cells and extracts the contact can be indirect. Here binding means that the protein was enriched with, or labelled near, the bait; the list need not be complete.
